{
  "sequences": {"note": "Protein sequences, listed by entry. Tags and fused reporters are not part of them. Lines headed by an entry give the natural chain unless they say otherwise; changes in a name come on top.", "UniProt O31418": "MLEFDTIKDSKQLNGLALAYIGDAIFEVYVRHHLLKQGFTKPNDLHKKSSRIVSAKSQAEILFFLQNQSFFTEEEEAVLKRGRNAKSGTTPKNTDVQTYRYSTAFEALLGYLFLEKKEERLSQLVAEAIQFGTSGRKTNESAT"},
  "source": "paper PMC4357697",
  "target": "BsMiniIII (Bacillus subtilis ATCC 23857) (UniProt O31418)",
  "experiment": "filter binding",
  "conditions": "1 mM Ca2+; Filter binding: 10 mM Tris-HCl pH 7.5, 5 mM NaCl, 1 mM CaCl2, room temperature, 1 h; 0.01 µM labeled 30 bp dsRNA, 0.1-4 µM enzyme; recombinant protein; protein details: C-terminal His6; label: 32P end label (33P in Methods for the substrate)",
  "note": "The exact form of at least one protein or probe is not confirmed. At least one verdict rests on a figure or table, not on a statement of the authors.",
  "data": [
    {"sequence": "CGAUACCGUCGACCUCGAGGGGGGGCCCGG / CCGGGCCCCCCCUCGAGGUCGACGGUAUCG [30 bp dsRNA (30f/30r)]", "values": [
      {"measurement": "binding result", "result": "binds"}
    ]}
  ]
}
